# Measured values published in PubChem BioAssay AID1259415 (National Center for Advancing Translational Sciences (NCATS), 2018).
# Where “and” joins values, the source holds several entries; their conditions need not be identical. Identical values can stand only once. In all, about 410,000 compounds went through this assay and about 18,000 (4.4%) were called active. Inconclusive means that the source gave no clear call. Such entries were picked first, then a sample of the others. No stated cut-off is given here; in the data, active means activity change below about -60%; inconclusive means no clear call, values can overlap the other calls; inactive means above about -39%.
# Test: qHTS Assay for inhibitors of the human cytomegalovirus (HCMV)
# Conditions: HFF cells, HCMV-luciferase reporter, 72 h; at 57.5 µM; stronger effect = lower value
# In short: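 Steps: HFFs plated, 16 h 37C; compounds added; HCMV-luciferase added to MOI 1 PFU/cell; 72 h 37C; OneGlo reagent, 5 min room temperature; luminescence read, normalized to controls.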
# On the % scale 0 is the no-effect control and ±100 the full control effect.
row,SMILES,"activity change, negative = inhibition"
1,CCOC(=O)/C(C#N)=C1\C(=O)N(Cc2ccccc2)c2ccccc21,inconclusive: -45.6%
2,CCOc1ccc2c(c1)c(=O)c(C(=O)c1ccc(C)cc1)cn2Cc1ccccc1OC,inconclusive: -46.6%
3,CC1=C(C(=O)OCC(C)C)C(c2ccc(Br)s2)NC(=O)N1 (stereo not drawn),inconclusive: -48.5%
4,COc1ccc2c(C#N)c3ccccn3c2c1,inconclusive: -41.3%
5,CC(C)c1ccc(NC(=O)Cn2c(=O)n(Cc3nc(-c4ccccc4)no3)c(=O)c3cc4c(cc32)OCO4)cc1,inactive: 27.1%
6,Cc1ccc2c(C)c3ccc4ccccc4c3c[n+]2c1,active: -95.5%
7,CCn1c(C)c(Br)c(=O)c(C(=O)OC)c1-c1ccc(Cl)cc1,inconclusive: -44.6%
8,Cc1[nH]c(=O)c(C#N)cc1-c1ccccc1,inactive: 22.5%
9,CC(C)N(Cc1nc(-c2ccccc2)no1)C(=O)c1ccc2c(c1)OCO2,inconclusive: -43.3%
10,CN(C)CCC(=O)C(Cc1ccccc1)c1ccccc1 (stereo not drawn),inactive: -11.4%
11,Cc1ccc(S(=O)(=O)N(Cc2ccccc2)c2ccccc2C(=O)Nc2ccccc2C(=O)NCc2ccco2)cc1,inconclusive: -57.1%
12,O=C(c1cc2cc(Br)ccc2o1)N1CCCCC1,inconclusive: -47.1%
13,COc1cc(S(=O)(=O)N2CCn3cccc3C2C)ccc1NC(C)=O (stereo not drawn),inactive: -8.53%
14,CC1(C)Cc2ccccc2-c2nnc(SCC(=O)N3CCN(c4ccccc4)CC3)n21,active: -92.4%
15,COc1ccc(OCC(=O)Nc2ccc(N3CCOCC3)cc2)cc1,inconclusive: -47.3%
16,CC(C)c1ccc(CNCc2ccccc2)cc1,inconclusive: -56.4%
17,Cc1ccc(-c2nn(-c3cc(Cl)ccc3[N+](=O)[O-])c(=O)c3ccccc23)cc1C,inconclusive: -57%
18,CC(=O)Nc1ccc(NC(=O)CSc2ncnc3c2cnn3Cc2ccccc2)cc1,inconclusive: -55.3%
19,CCOC(=O)c1c(C)[nH]c(CCC(=O)NCCCN2CCN(c3ccccc3F)CC2)c1C,inactive: -30.2%
20,CCOc1ccccc1NC(=O)CNC(=O)Cc1ccccc1,inconclusive: -44.8%
21,CC(C)c1cc(Br)ccc1OCCN1C(=O)NC(C)(C)C1=O,active: -60.9%
22,CC(C)OCCCN1C(=O)c2[nH]nc(-c3ccccc3O)c2C1c1cccc(OCc2ccccc2)c1 (stereo not drawn),inconclusive: -58.5%

row,SMILES,"activity change, negative = inhibition"
1,COc1cccc(NC(=O)CN2C(=O)C(c3ccc(C)cc3)=NC23CCCCCC3)c1,inconclusive: -45.9%
2,CC(=O)Nc1ccc(S(=O)(=O)N2CCC(C(=O)c3ccc(Cl)cc3)CC2)cc1,active: -62.7%
3,CCN(CC)c1ccc(/C=C/c2cccc[n+]2C)c(OC)c1,active: -97.2%
4,Cc1ccn(-c2ccc([N+](=O)[O-])cc2)n1,active: -88.2%
5,Oc1ccc(Cl)cc1N=Cc1sc2ccccc2c1Cl,inconclusive: -40.5%
6,COc1ccc(C(=O)OCC(=O)N2CCN(C(=O)c3ccco3)CC2)c(OC)c1OC,active: -102%
7,C/C(=N\NC(N)=S)C1C2C3CC4C5CC(C42)C1C53 (stereo not drawn),active: -62.4%
8,CCCCNC(=S)N1CCN(c2ccccc2Cl)CC1,inconclusive: -57.1%
9,CC(Cc1cccs1)NC(=O)Nc1ccc([N+](=O)[O-])cc1 (stereo not drawn),inconclusive: -40.7%
10,Cc1ccccc1Nc1c(-c2ccccn2)nc2ccccn12,active: -97.8%
11,CCCCn1c(N)c(N(CC(C)C)C(=O)CSc2ccc3c(c2)OCCO3)c(=O)[nH]c1=O,inactive: 15.3%
12,O=C(CCS(=O)(=O)Cc1ccccc1)Nc1ncc([N+](=O)[O-])s1,active: -96%
13,CCOC(=O)c1ccc2[nH]c3c(c2c1)CCCC3O (stereo not drawn),inactive: -6.22%
14,COc1ccc(S(=O)(=O)N2CCOCC2)cc1NC(=O)CSc1nnc2n1CCCCC2,inactive: 0.888%
15,CCCCN(C)S(=O)(=O)c1ccc(C(=O)Nc2nnc(-c3ccco3)o2)cc1,inconclusive: -55.7%
16,COc1ccc(C2(C(=O)NC(C)C)CCCC2)cc1OC,inactive: 3.75%
17,COC(=O)c1ccc(CNC(=O)CCC(=O)N2CCOCC2)cc1,inconclusive: -54.1%
18,Cc1ccc(O)c(NC(=O)c2cc(-c3cccs3)on2)c1,inconclusive: -54.1%
19,NC(=O)c1ccc(Oc2ccc3c(c2)CCC3)c([N+](=O)[O-])c1,inconclusive: -41.4%
20,COc1ccccc1-n1c(=O)oc2ccc(Cl)cc2c1=O,active: -95.3%
21,CCC(=O)Nc1cc2nn(-c3ccc(C)cc3)nc2cc1C,inconclusive: -43.4% and active: -66.1%
22,CC(=O)N1CCc2c(sc(NC(=O)CS(=O)(=O)c3ccc(F)cc3)c2C(N)=O)C1,inactive: -32%

row,SMILES,"activity change, negative = inhibition"
1,S=C(NCc1ccco1)Nc1cccc(Cl)c1,inconclusive: -54.1%
2,CCN(CC)c1ccc(NC(=O)c2cnc3ccccn3c2=O)c(C)c1,active: -72.9%
3,COc1ccc(CN2CSC(=S)N(Cc3ccccc3)C2)cc1,inconclusive: 0%
4,O=c1[nH]c2ccc([N+](=O)[O-])cc2nc1/C=C(\O)c1ccccc1,inconclusive: -52.1%
5,O=C(CSC1=NCCS1)Nc1nc2c(s1)CCCC2,active: -73%
6,COc1ccc(CC(=O)Nc2cccc(-c3nnc(-c4ccco4)o3)c2)cc1,inconclusive: -45.6%
7,O=C(COc1ccccc1)NCc1ccc(-n2cccc2)cc1,inconclusive: -42.7%
8,C/C(=N/NC(=O)C1CC1(c1ccccc1)c1ccccc1)c1ccco1 (stereo not drawn),inconclusive: -45.4%
9,O=C(O)c1ccc2c(=O)n(-c3ccc(F)c(Cl)c3)c(=S)[nH]c2c1,inconclusive: -43%
10,CC(C)NC(=O)CSc1nc(Cc2cccs2)nc2ccccc12,active: -81.3%
11,COC(=O)C1=C(c2cccc(C#N)c2)C[C@@H]2CC[C@H]1N2C(=O)NC1Cc2ccccc2C1,inconclusive: -43.4%
12,O=c1c2ccccc2nc(-c2ccc(Cl)cc2Cl)n1-c1ccncc1,inconclusive: -42%
13,N#Cc1cccc(NC(=O)CN2CCCCCC2)c1,inactive: -11.3%
14,CC1CCCN(c2ncnc3c2cnn3-c2ccccc2)C1 (stereo not drawn),inconclusive: -57.2%
15,CSc1nc(SCC(=O)NC(c2ccccc2)c2ccccc2)c2c3c(sc2n1)CN(C)CC3,inactive: -29.3%
16,C=CCN(CC=C)C(=O)c1ccc(OC2CCN(S(=O)(=O)N(C)C)CC2)cc1,inconclusive: -41.2%
17,Cc1ccc(S(=O)(=O)c2nnn3c2nc(N2CCC(C(N)=O)CC2)c2cc(Cl)ccc23)cc1C,inactive: 4.95%
18,C=CCc1cc(/C=C2/NC(=O)N(CC)C2=O)cc(OCC)c1OCc1ccc(C(=O)O)cc1,inactive: -3.53%
19,CCCN(CCC)C(=O)C1CCCN(c2ncnc3c2nc2n3CCCCC2)C1 (stereo not drawn),inconclusive: -55%
20,C/C=C/c1ccc(OCC(O)CN(C)Cc2ccc(SC)cc2)c(OC)c1 (stereo not drawn),active: -102%
21,COc1cc(OC)c(OC)cc1C=O,inconclusive: -45.8%
22,N#Cc1cccc(S(=O)(=O)N2CCN(c3ccnc4cc(Cl)ccc34)CC2)c1,inconclusive: -44%

row,SMILES,"activity change, negative = inhibition"
1,Cc1ccccc1Cn1c(SCc2ccc(C(=O)NCCc3ccccc3)cc2)nc2ccncc21,inactive: -6.46%
2,CC(=O)Nc1ccc(S(=O)(=O)Nc2cccc3[nH]ncc23)cc1,inconclusive: -44.6%
3,Cc1cccc(NC(=S)N/N=C/c2cccc(O)c2)c1C,inconclusive: -47.2%
4,CCN(CC)c1ncnc2sc3c(c12)CCC3,inconclusive: -48%
5,O=C(CCNS(=O)(=O)c1ccc(Cl)cc1)N1CCN(c2ccccn2)CC1,inactive: -18.3%
6,COc1ccc(NC(=O)CCN2CCN(c3ccc(F)cc3)CC2)cc1,active: -75.6%
7,O=C(CN1CCN(c2cccc(Cl)c2)CC1)NC1CCCc2ccccc21 (stereo not drawn),inactive: -6.63%
8,C=CCSc1nc(N(CC)CC)c2sccc2n1,inconclusive: -46.3%
9,CCOC(=O)c1ccc(NC(=O)c2cc3c([nH]c2=O)CC(c2ccccc2)CC3=O)cc1 (stereo not drawn),inactive: 10.2%
10,CC(C)(C)c1ccc(-n2ncc3c2CCCC3NC(=O)c2cnccn2)cc1 (stereo not drawn),active: -63.2%
11,CC(=O)N1CCN(C(=S)NC(=O)c2ccc(F)cc2)CC1,inconclusive: -51.4%
12,COc1ccc(C(=O)Nc2nc3n(n2)C(c2ccc(F)cc2)C=C(c2ccc(Cl)cc2)N3)cc1 (stereo not drawn),inconclusive: -41.3%
13,CCCOc1ccc(C2NC(=S)NC(C)=C2C(=O)c2ccccc2)cc1OC (stereo not drawn),inconclusive: -51.3%
14,Cc1cccc(/C=C2/S/C(=N/N=C3\CC4CCC3(C)C4(C)C)NC2=O)c1 (stereo not drawn),inactive: -6.83%
15,O=C(c1ccccc1Oc1ccccc1)N1CCN(c2ccccc2)CC1,inconclusive: -43.3%
16,Cc1ccccc1-n1c(=O)/c(=C\c2ccco2)s/c1=C(/C#N)C(=O)Nc1ccccc1,inactive: -29.2%
17,O=C(NCc1cccs1)C(=O)c1cn(CC(=O)N2CCOCC2)c2ccccc12,active: -95.5%
18,CCc1ccccc1NS(=O)(=O)c1cc(Br)cc2c1N(C(=O)C1CC1)CC2,inconclusive: -43.1%
19,Cc1ccc(S(=O)(=O)Nc2ccccc2C(=O)OC(C)C(=O)Nc2ccc3ccccc3c2)cc1[N+](=O)[O-] (stereo not drawn),inconclusive: -48.8%
20,CC(Nc1oc(-c2ccc(COc3ccc(Cl)cc3)o2)nc1C#N)c1ccccc1 (stereo not drawn),active: -73.9%
21,CCN(CC)c1ccc(NC(=O)CN2C(=O)c3cccnc3Oc3ccc(Cl)cc32)c(C)c1,inconclusive: 0%
22,O=C(Cc1ccccc1)N1CCN=C1SCc1ccc([N+](=O)[O-])cc1,inactive: 17.7%
